# In paper PMC6327430:
# By UniProt entry, the sequences of proteins in these tests, tags left out. Residues count along the entry.
# UniProt P78527: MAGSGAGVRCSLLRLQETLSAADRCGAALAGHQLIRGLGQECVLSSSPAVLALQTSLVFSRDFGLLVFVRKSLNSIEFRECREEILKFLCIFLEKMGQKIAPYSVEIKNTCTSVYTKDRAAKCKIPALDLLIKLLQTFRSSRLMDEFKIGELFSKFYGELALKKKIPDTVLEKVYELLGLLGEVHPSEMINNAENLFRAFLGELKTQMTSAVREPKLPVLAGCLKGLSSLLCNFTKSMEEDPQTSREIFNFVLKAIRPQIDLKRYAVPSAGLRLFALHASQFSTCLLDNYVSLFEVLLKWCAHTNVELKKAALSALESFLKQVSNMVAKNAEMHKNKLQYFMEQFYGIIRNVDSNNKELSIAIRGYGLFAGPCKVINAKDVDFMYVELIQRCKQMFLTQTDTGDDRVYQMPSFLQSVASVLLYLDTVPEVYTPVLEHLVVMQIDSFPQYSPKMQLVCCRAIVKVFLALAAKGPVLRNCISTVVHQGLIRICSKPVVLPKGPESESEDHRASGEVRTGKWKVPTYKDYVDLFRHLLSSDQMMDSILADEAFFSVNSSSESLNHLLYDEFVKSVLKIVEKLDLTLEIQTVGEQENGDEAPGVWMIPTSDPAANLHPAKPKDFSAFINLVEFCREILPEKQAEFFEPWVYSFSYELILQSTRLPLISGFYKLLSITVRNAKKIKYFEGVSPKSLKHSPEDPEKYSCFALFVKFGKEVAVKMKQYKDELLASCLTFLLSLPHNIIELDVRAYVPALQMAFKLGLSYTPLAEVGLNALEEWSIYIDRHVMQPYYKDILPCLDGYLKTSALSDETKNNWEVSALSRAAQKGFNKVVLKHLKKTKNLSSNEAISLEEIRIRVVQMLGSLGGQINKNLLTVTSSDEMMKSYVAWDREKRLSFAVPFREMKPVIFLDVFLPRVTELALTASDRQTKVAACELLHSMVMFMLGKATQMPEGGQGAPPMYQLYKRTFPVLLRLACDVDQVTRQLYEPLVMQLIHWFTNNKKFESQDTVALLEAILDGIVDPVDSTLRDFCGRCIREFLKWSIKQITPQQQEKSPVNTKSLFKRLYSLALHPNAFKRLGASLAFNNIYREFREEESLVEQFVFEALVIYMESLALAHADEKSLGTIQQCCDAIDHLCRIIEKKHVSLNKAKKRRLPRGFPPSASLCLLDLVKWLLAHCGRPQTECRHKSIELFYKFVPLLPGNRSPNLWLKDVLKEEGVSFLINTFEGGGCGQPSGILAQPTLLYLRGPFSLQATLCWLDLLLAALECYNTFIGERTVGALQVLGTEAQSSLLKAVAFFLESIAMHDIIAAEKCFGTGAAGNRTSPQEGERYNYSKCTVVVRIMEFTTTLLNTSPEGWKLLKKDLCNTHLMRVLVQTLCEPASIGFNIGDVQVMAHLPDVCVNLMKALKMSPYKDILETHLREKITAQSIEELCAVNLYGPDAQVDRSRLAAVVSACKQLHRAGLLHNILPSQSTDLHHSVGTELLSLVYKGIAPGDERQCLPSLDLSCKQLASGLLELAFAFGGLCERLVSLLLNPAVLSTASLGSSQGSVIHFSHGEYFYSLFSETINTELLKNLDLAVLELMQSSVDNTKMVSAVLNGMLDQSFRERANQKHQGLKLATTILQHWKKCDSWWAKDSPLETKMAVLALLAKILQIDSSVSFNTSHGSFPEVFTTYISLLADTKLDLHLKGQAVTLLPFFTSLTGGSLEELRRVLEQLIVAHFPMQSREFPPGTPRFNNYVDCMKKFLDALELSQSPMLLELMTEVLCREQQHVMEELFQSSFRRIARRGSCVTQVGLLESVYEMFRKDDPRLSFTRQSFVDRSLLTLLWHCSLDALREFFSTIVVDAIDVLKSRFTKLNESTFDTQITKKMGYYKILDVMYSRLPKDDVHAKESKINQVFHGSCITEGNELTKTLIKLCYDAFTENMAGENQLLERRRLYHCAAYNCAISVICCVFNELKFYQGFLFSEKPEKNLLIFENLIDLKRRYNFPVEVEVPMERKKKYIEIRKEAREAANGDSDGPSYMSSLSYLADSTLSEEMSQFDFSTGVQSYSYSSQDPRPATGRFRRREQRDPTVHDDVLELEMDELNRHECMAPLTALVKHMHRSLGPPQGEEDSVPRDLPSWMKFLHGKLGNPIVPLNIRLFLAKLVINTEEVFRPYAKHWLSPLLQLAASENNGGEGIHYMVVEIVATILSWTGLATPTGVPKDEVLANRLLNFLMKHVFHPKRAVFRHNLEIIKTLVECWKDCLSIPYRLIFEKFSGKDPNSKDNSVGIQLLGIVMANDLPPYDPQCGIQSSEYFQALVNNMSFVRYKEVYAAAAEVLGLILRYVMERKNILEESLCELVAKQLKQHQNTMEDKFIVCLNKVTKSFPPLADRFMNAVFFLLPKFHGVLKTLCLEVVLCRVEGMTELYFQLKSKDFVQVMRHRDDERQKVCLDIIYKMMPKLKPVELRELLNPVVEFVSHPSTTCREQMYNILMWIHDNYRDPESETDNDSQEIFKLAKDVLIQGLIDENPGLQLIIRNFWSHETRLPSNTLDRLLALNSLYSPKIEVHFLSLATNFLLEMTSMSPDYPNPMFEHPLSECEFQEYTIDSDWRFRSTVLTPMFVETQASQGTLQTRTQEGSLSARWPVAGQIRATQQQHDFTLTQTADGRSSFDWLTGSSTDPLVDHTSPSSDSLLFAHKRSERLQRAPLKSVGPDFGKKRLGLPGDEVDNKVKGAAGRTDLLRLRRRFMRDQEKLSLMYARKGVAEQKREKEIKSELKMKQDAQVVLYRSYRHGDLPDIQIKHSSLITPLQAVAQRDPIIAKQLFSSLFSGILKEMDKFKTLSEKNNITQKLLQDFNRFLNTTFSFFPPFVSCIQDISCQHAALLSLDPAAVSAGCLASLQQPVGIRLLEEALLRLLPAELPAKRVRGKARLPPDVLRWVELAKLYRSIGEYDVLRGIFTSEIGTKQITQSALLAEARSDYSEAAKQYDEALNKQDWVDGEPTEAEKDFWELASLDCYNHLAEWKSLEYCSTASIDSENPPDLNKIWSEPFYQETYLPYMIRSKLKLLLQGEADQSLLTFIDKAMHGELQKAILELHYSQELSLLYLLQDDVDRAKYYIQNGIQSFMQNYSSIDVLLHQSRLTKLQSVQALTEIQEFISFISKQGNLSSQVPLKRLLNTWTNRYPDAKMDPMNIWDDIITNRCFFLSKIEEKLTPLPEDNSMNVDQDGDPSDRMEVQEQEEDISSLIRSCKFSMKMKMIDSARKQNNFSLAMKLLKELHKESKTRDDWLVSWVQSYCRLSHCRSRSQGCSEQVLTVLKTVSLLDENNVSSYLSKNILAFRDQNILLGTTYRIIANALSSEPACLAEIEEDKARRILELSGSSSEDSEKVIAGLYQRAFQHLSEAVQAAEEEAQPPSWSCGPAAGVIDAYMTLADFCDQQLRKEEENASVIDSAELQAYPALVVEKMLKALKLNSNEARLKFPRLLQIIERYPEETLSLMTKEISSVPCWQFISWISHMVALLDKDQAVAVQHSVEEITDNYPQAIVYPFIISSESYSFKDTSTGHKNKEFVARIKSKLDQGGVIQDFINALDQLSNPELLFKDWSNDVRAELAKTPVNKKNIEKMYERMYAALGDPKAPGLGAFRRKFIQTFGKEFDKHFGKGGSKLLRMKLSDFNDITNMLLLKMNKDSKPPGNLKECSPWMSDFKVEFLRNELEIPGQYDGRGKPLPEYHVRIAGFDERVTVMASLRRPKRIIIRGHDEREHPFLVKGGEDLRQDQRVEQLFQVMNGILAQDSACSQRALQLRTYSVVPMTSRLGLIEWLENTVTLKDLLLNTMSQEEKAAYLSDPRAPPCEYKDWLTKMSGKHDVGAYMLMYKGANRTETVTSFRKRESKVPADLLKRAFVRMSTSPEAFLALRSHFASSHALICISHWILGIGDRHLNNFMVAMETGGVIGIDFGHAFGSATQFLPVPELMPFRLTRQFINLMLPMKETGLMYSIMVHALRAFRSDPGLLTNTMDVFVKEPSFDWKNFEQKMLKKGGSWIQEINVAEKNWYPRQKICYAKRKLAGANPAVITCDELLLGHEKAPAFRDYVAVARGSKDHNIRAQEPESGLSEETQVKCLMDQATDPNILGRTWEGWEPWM
# UniProt P18065, residues 36-325: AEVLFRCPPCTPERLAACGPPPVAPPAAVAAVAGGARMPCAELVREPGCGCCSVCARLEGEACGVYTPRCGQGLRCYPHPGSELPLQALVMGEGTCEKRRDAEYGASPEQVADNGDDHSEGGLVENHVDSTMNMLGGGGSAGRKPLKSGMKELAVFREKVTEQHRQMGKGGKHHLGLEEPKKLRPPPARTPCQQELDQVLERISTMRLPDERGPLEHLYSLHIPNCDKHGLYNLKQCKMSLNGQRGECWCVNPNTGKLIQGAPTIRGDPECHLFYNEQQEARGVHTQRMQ
# No constants are given. Whether binding was seen depends on the method and setting. In cells and extracts the contact can be indirect. Some results given as binding are weak or reduced against the parent protein; the word gives no strength.
# Assays:
# [1] = molecular target: DNA-dependent protein kinase, catalytic subunit (human (endogenous in FLO1 and OE33)) (UniProt P78527); test: co-IP; endogenous proteins; antibodies against IGFBP2, EGFR or DNA-PKcs captured on protein G magnetic beads, incubated with lysate at 4 °C overnight, western blot; FLO1 and OE33 cells untreated or treated with acidic bile salts (ABS, pH 4, 200 μM) for 20 min and recovered 0.5 h; also FLO1 cells with IGFBP2 siRNA knockdown (EGFR IP); IgG as negative control
# [2] = molecular target: epidermal growth factor receptor (human (endogenous in FLO1 and OE33)) (UniProt P00533); test: as above
substance,measurement,setting,value
insulin-like growth factor binding protein 2 (from UniProt P18065 36-325),binding,[1],binds
same,binding,[2],binds
